# Test results taken from paper PMC4731418.
# Sequences of proteins named here, by UniProt entry; tags and fusion partners are left off. A change or cut given only in a name is not applied to a line headed by its entry.
# UniProt Q5EG47: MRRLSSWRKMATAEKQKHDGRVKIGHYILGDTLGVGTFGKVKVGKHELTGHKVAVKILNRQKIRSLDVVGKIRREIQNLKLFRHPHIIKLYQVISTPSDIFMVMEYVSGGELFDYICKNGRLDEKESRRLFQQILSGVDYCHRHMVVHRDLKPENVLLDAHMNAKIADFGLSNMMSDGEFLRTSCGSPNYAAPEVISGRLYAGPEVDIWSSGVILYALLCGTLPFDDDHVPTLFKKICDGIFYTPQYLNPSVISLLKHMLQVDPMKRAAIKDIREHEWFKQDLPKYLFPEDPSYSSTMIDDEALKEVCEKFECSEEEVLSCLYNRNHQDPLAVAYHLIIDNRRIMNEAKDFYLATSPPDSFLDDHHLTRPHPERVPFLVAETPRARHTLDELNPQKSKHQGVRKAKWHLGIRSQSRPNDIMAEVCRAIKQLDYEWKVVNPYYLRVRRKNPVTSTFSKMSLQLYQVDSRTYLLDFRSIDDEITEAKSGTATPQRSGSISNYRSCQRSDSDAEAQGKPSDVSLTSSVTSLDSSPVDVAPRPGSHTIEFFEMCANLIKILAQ
# UniProt Q8VDP4: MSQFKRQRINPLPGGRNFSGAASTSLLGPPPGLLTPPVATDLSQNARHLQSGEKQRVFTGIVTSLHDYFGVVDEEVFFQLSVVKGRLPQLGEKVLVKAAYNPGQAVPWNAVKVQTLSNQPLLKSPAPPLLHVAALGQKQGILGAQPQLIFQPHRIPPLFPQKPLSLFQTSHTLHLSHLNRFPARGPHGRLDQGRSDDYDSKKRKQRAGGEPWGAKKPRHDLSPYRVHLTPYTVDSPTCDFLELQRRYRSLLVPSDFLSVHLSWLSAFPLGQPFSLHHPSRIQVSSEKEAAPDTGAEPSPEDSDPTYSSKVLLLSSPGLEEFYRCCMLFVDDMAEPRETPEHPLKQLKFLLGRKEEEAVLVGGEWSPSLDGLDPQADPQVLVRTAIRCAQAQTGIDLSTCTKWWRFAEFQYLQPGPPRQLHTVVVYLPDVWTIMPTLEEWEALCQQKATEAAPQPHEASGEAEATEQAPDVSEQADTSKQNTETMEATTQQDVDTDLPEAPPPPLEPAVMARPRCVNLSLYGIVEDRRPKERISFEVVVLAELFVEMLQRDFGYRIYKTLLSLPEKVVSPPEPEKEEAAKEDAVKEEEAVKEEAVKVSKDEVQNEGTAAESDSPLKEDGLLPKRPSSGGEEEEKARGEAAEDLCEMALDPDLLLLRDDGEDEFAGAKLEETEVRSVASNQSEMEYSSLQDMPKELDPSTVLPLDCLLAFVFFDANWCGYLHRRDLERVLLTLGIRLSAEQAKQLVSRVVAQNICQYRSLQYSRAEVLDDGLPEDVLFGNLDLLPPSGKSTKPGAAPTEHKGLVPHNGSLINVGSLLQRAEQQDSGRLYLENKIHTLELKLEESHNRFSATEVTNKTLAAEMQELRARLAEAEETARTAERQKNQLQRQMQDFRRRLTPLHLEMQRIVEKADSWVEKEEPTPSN
# UniProt P42859: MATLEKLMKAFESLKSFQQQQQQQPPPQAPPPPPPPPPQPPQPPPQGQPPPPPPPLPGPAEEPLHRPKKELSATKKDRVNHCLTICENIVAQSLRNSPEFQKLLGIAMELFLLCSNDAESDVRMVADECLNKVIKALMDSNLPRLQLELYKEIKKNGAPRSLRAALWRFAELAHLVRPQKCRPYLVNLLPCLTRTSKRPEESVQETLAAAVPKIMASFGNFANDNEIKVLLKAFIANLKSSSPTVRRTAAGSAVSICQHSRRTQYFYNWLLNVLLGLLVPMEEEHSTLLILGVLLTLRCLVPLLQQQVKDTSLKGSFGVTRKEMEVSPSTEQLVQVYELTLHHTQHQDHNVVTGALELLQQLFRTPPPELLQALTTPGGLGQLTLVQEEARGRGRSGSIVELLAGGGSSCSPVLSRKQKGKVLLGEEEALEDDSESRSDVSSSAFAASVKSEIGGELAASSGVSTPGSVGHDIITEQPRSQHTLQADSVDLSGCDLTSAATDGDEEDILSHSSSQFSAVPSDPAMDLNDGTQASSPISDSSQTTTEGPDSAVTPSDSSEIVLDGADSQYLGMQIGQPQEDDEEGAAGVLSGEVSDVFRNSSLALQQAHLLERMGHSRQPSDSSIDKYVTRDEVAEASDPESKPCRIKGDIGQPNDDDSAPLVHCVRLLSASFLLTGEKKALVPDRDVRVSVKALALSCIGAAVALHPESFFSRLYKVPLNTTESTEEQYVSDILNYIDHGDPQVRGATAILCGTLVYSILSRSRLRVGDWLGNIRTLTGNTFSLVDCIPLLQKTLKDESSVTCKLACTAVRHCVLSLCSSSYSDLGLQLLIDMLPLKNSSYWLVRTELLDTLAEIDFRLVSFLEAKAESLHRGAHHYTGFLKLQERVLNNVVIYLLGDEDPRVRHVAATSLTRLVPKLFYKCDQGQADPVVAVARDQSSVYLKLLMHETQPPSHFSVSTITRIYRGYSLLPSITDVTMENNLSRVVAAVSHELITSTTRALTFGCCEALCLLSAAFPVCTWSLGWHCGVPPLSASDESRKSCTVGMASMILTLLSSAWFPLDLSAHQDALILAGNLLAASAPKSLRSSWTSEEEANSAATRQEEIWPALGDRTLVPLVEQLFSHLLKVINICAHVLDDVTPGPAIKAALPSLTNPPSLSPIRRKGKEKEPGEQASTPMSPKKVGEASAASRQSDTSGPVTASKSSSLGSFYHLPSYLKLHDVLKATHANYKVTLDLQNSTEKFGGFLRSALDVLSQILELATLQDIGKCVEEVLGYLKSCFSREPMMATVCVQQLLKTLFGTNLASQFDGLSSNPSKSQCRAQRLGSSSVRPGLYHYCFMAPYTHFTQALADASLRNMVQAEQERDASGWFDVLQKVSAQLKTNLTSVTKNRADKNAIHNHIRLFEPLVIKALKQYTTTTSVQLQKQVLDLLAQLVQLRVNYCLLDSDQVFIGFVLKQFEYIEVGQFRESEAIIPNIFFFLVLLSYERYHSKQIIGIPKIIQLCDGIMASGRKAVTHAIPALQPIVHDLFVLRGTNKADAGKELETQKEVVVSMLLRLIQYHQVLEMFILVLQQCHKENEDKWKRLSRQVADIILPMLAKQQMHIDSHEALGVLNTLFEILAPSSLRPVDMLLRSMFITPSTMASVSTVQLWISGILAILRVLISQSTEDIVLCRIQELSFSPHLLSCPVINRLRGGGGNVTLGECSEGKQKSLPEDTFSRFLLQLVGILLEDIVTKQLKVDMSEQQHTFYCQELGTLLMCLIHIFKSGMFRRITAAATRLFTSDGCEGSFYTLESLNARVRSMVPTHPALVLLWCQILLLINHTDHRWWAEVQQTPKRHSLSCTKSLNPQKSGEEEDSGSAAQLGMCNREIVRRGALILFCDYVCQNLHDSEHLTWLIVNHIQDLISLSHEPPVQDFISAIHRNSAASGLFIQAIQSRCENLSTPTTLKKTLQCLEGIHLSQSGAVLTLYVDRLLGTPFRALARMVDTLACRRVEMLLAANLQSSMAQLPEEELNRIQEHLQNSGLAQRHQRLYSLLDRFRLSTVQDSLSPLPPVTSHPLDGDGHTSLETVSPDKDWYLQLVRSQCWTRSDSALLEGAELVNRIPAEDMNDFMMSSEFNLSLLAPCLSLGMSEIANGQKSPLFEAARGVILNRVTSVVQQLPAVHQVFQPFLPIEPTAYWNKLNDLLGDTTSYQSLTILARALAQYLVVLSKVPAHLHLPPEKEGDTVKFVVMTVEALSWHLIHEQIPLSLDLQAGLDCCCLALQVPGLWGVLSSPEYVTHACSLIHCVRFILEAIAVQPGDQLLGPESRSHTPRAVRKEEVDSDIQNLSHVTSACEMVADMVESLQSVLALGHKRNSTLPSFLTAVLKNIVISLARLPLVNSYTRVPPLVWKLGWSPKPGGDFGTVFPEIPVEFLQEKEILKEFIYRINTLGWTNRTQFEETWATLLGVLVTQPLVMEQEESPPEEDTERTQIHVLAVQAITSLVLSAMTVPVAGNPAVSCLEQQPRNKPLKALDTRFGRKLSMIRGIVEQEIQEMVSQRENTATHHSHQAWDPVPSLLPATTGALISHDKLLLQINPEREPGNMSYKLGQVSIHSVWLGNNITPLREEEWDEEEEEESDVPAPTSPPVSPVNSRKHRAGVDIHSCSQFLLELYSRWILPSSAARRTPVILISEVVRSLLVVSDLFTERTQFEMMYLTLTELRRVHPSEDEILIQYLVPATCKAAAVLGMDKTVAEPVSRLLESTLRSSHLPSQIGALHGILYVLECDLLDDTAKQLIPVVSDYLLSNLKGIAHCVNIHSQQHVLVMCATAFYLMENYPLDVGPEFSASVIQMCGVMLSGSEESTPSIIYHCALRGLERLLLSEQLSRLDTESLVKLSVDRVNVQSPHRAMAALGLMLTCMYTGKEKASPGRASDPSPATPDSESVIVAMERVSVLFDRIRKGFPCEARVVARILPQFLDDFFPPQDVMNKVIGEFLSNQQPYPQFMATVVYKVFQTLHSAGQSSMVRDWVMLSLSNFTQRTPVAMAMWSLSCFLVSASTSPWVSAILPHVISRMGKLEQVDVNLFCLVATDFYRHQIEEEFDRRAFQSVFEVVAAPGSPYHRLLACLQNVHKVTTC
# Results are given in words; binding and its absence hold for the method and conditions named. In cells and extracts the contact can be indirect. Some binding calls cover weakened binding; strength is not graded here.
# Key:
# [1] = biological target: AMP-activated protein kinase-α1 (AMPK-α1) (mouse (endogenous in mouse brain)) (UniProt Q5EG47); test: co-IP; AMPK-α1 immunoprecipitated (1 μg antibody, 90 min, 4°C, protein G Dynabeads) from striatum and cerebellum lysates of 9-week R6/2, 22-month HdhQ150 homozygous and WT littermate mice in NETN buffer; western blot for DBC1
# [2] = biological target: T1, SIRT1 (mouse (endogenous in mouse brain)) (UniProt Q923E4); test: co-IP; SIRT1 immunoprecipitated (1 μg antibody, 4 h, 4°C, protein G Dynabeads) from half brain lysates of R6/2 (9 weeks), HdhQ150 homozygous (22 months) and WT littermate mice in NETN buffer (20 mM Tris-HCl pH 8, 100 mM NaCl, 1 mM EDTA, 0.5% NP-40); western blot for HTT
# T1 sequence: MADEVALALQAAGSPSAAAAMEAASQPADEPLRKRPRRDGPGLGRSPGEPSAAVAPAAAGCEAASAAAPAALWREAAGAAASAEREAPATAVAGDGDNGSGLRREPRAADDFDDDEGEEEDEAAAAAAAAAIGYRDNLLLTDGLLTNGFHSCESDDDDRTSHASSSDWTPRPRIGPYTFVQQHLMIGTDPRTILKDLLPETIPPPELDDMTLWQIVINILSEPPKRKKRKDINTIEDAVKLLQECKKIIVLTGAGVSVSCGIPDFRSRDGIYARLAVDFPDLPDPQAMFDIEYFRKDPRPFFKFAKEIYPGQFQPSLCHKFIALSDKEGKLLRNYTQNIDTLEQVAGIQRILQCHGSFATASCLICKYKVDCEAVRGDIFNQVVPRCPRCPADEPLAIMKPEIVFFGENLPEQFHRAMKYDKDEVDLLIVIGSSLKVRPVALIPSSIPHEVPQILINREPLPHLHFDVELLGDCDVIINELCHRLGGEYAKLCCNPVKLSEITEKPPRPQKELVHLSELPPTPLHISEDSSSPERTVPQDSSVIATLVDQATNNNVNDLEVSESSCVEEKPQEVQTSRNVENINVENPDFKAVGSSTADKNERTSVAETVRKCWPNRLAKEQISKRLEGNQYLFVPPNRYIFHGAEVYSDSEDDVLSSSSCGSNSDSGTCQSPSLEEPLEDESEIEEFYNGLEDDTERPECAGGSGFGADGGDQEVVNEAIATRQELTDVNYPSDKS
binding [1],binding [2],Substance
binds,–,DBC1 (deleted in breast cancer 1) (from UniProt Q8VDP4 1-922)
–,binds,"huntingtin protein (HTT), endogenous wild-type mouse (from UniProt P42859 1-3119)"
